Screening data, single-dose tests

Source: ChEMBL document CHEMBL3988442, “University of Dundee, Small-Polar-MMV Screening Library” (2021).

T. brucei: 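Whole-parasite assay of Trypanosoma brucei over 72 hours; the read-out is not stated. Tested at 30 µM. Higher reads as stronger inhibition (inferred: compounds with an IC50 in retests scored well above the rest). Values scatter widely below zero; nearly all retest evidence comes from the higher of the two concentrations used. Size under these conditions: about 64,000 compounds, about 940 of them at 50% or above in at least one test.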
Leishmania in macrophages: 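Cell assay of Leishmania donovani living inside macrophages; the read-out is not stated. Concentration: 30 µM. The record gives no direction; compounds that gave an IC50 in retests scored well above the rest, so higher reads as stronger inhibition. Of about 69,000 compounds tested this way, about 1,000 (1.5%) reached 50% or more in at least one test.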

Each number is a percent effect as filed. The record does not define 0% and 100%; most values in the screen are far below 50% and negative numbers occur (in some assays of this library far below -100). This is an unselected part of the compounds tested. Two or more numbers in one place are separate tests of the same structure; such repeats can differ widely. A dash means the value is not listed here; it may have been measured.

structure,T. brucei,Leishmania in macrophages
CC(C)C(=O)Nc1cccc(CNC(=O)CSCc2ccccn2)c1,-33.2%,-1.333%
Fc1ccccc1CN1CCCN(c2ccc3cc[nH]c3n2)CC1,12.82%,10.91%
CN(C)c1nc(O)cc(C2CCN(C(=O)Cc3ccccn3)C2)n1 (configuration not stated),-,12.27%
CCOC(=O)C1(Cc2cccc(OC)c2)CCCN(Cc2ncc[nH]2)C1 (configuration not stated),-,-0.9604%
O=C(NCCN1CCc2ccccc2C1)c1scnc1Cl,46.18%,19.68%
[H][C@@]12CS(=O)(=O)C[C@]1([H])N(C(=O)c1ccc3c(c1)NC(=O)CN3)CCN2CC,-,0.2734%
NCCn1nc(C2CCN(Cc3ccccc3Cl)C2)c2nccnc21 (configuration not stated),22.22%,9.93%
CCN1CC2(CCN(C(=O)C(C)Oc3ccc(F)cc3F)CC2)OC1=O (configuration not stated),-42.33%,-20.05%
CCC(C)(COc1ncccc1Cl)NCC(=O)Nc1ccc(Br)cn1 (configuration not stated),-16.5%,-30.49%
COCCn1nc(C(=O)N2CCOCC2C)ccc1=O (configuration not stated),-22.06%,18.57%
CCn1cc(CN2CCC(O)(Cn3ccc4ncccc43)CC2)cn1,-5.191%,0.03126%
CCOCC1CN(S(C)(=O)=O)Cc2ncn(CC3CC3)c21 (configuration not stated),-82.93%,-10.76%
Cc1cc(C)nc(C2CCCNC2)n1.Cl.Cl (configuration not stated),-,-10.77%
Cc1nc(CN2CCCC(CCc3cccc(C(F)(F)F)c3)C2)co1 (configuration not stated),40.44%,18.7%
[H][C@@]12C[C@H](c3noc(C)n3)O[C@@]1([H])CCN(C(=O)c1cc(C)c(C)s1)C2,-27.88%,-33.11%
COCc1nc(C(=O)N2CCCC2c2ccccc2C)cs1 (configuration not stated),6.079%,0.6334%
CS(=O)(=O)NC[C@H]1Cn2c(-c3ccc4c(c3)OCCO4)cnc2CO1,-8.439%,-1.247%
O=C(O)C(F)(F)F.O=C(O)C(F)(F)F.c1ccc(N2CCC3(COCCN(c4ncccn4)C3)C2)nc1 (configuration not stated),-8.969%,3.466%
CN(C)c1ncc(-c2cc(C(=O)NC(C)(C)CO)n(CC3CC3)c2)cn1,20.55%,24.32%
Cc1ccc(C(=O)N2CC3(CCNCC3)c3cc(Cl)ccc32)cn1.O=C(O)C(F)(F)F.O=C(O)C(F)(F)F,-47.53%,17.35%
COc1ccc(C(=O)N2CCOCC2c2[nH]ncc2C)cc1F (configuration not stated),-5.93%,17.07%
CCOc1ccc(Cl)c(C(=O)NCCS(N)(=O)=O)n1,-3.197%,1.82%
Cc1n[nH]cc1CNC1(c2ccc(F)cc2)CCCC1,-110.9%,-40.8%
N[C@@H]1CCN(Cc2cccc(N3CCOCC3)c2)C[C@H]1O,-17.51%,-42.9%
CSc1ncn(-c2nc(N(C)C)nc(N(C)C)n2)n1,-52.36%,14.93%
Cc1ocnc1C(=O)N1CC[C@@H](O)[C@@H](O)[C@H](N2CCC(F)(F)CC2)C1,-16.04%,18.83% & 7.339%
Cc1cc(C)n2cc(CN3CCC(N4CCN(C)C4=O)CC3)nc2n1,-32.8%,8.15%
Cc1cc(CN(C)C(=O)c2cc(COc3ccccc3)[nH]n2)n[nH]1,-57.12%,23.69%
O=C(NC[C@@H]1CCCO1)c1ccc(S(=O)(=O)N[C@@H]2CCNC2)cc1,-27.2%,17.53%
CCc1nnc(NC(=O)Cc2c(C)nc(C)[nH]c2=O)s1,-,-7.836%
Cc1nc(C)n(CC2CCCN(CCCc3ccccc3)C2)n1 (configuration not stated),6.623%,30.11%
Cc1ccc(F)cc1S(=O)(=O)Nc1cnc(N2CCCC2)nc1,1.516%,11.73%
O=C(O)Cn1nc(C2CC2)c2c(-c3ccc(F)cc3)ccnc21,-19.87%,10.12%
CC(C)c1ncc2c(n1)CN(Cc1nc(Cc3ccccc3)no1)CC2,24.49%,24.96%
Cc1ccc(SC2CCCC2)c(C(=O)NCCO)c1,-19.93%,9.834%
CCSc1ncc(CN2CCC(O)(CN3CCOCC3)C(C)(C)C2)cn1 (configuration not stated),-11.21%,-14.19%
c1ccc(OCCCNCCn2cccn2)cc1,9.303%,7.324%
CN(C)c1ncc(NC(=O)c2cccc(Nc3cnn(C)c3)c2)cn1,-27.68%,-49.57%
COCCN1CC[C@H](O)[C@@H]1Cc1ccccc1.O=C(O)C(F)(F)F,22.64%,25.19%
O=C1CCCN1Cc1ncn2c1CN(C(=O)Cc1ccccc1)CCC2,-32.32%,-1.94%
O=C(Nc1c(N2CCCC2)cccc1N1CCCC1)c1cnsn1,-,-91.54%
[H][C@@]12C[C@H](C(=O)NC3CCC3)[C@@]([H])(CN(C(=O)Nc3ccc(CC)cc3)C1)O2,-16.27%,45.51%
CCS(=O)(=O)N1CC(=O)N(CCCc2ccccc2)CC(O)C1 (configuration not stated),4.258%,-15.27%
Cc1ccc(CSCCn2nc3ccccn3c2=O)cc1,-4.804%,-17.78%
CC(C)c1nc(CN2CCCC2CN2CCCC2)cs1 (configuration not stated),99.84%,12.11%
CN(C)C(C(=O)N1CC(c2ccccn2)C1)c1ccc2c(c1)OCO2 (configuration not stated),-24.24%,5.909%
CC(C)n1cnc(C2CN(C)c3ccc(C(=O)NCC4CC4)cc32)n1 (configuration not stated),-70.97%,13.15% & -11.81%
c1ccc2ncc(CC3CCNC3)cc2c1 (configuration not stated),-47.96%,-15.46%
COc1cc(C)nc(N2CCN(C(=O)CCc3cscn3)CC2)n1,-11.21%,29.31%
Cc1cccc2sc(NC(=O)CN3CCCC(O)(CO)C3)nc12 (configuration not stated),-27.87%,-5.744%
O=C(O)C(F)(F)F.[H][C@@]12CCN(S(C)(=O)=O)CC[C@]1(C(=O)N1CCCC1)CCN2CC,-10.98%,8.096%
Cc1ccn(CCNc2ncnc3c2CCN(Cc2ncc[nH]2)CC3)n1,-5.24%,20.9%
CCOC(=O)NC1CCCN(Cc2ccc(-n3cncn3)c(C)c2)C1 (configuration not stated),-60.21%,5.57%
CC(C)(C)C(=O)N1C[C@@H](F)[C@@H](OCc2nc3ncccc3[nH]2)C1,-4.359%,19.69%
CN(C)CCCn1ccc(-c2cccc(-c3cncnc3)c2)n1,-,36.7%
O=C(Cn1cccnc1=O)NCC1Cc2ccccc2O1 (configuration not stated),-27.46%,12.27%
C=C(C)COc1cccc(CNCc2nc3ccccc3c(=O)[nH]2)c1,-36.2%,23.03%
Cc1ccc(CN(CCCN(C)C)Cc2cnc(N(C)C)nc2)o1.O=C(O)CC(O)(CC(=O)O)C(=O)O,-21.61%,4.299%

Repeated from the top, 7 entries:

| structure | T. brucei | Leishmania in macrophages |
|---|---|---|
| `CC(C)C(=O)Nc1cccc(CNC(=O)CSCc2ccccn2)c1` | -33.2% | -1.333% |
| `Fc1ccccc1CN1CCCN(c2ccc3cc[nH]c3n2)CC1` | 12.82% | 10.91% |
| `CN(C)c1nc(O)cc(C2CCN(C(=O)Cc3ccccn3)C2)n1` (configuration not stated) | - | 12.27% |
| `CCOC(=O)C1(Cc2cccc(OC)c2)CCCN(Cc2ncc[nH]2)C1` (configuration not stated) | - | -0.9604% |
| `O=C(NCCN1CCc2ccccc2C1)c1scnc1Cl` | 46.18% | 19.68% |
| `[H][C@@]12CS(=O)(=O)C[C@]1([H])N(C(=O)c1ccc3c(c1)NC(=O)CN3)CCN2CC` | - | 0.2734% |
| `NCCn1nc(C2CCN(Cc3ccccc3Cl)C2)c2nccnc21` (configuration not stated) | 22.22% | 9.93% |